Measurements reported in patent US5340814A, “3-substituted methyl-2,3-dihydroimidazo[1,2-C] quinazoline derivatives, the preparation and use thereof” (National Science Council, priority 1992, dated 1994).

Tested on: α2-adrenergic receptor
Experiment: α2-Adrenergic receptor binding, [^3 H] clonidine, rat brain cortex membranes
Settings: ratio of Ki values, α2 over α1

| SMILES | α2 /α1 ratio |
| --- | --- |
| COc1cccc(N2CCN(CC3CN=C4c5ccccc5N=C(SC)N43)CC2)c1 (centres unmarked) [Example 7, 3-{4-[1-(3-methoxyphenyl)piperazinyl]}methyl-5-methylthio-2,3-dihydroimidazo[1,2-c]quinazoline] | 171 |
| CSC1=Nc2ccccc2C2=NCC(CN3CCN(c4ccccc4Cl)CC3)N12 (centres unmarked) [Example 9, 3-{4-[1-(2-chlorophenyl)piperazinyl]}methyl-5-methylthio-2,3-dihydroimidazo[1,2-c]quinazoline] | 529 |
